Data as given in PubChem BioAssay AID1053208 (Peter MacCallum Cancer Centre, 2014).
Purpose: 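Synthetic lethal interactions between gene loss and doxorubicin in osteosarcoma cells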 (primary screen). System: mouse osteosarcoma cells, early-passage culture from an engineered mouse model of fibroblastic bone tumour. Knock-down reagent: siRNA pool against mouse genes, 40 nM. Duration: about 120 h (48 h before drug, then 72 h with drug). Challenge: doxorubicin 100 nM for 72 h, roughly 30-40% inhibitory dose. Detection: 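Viability read as ATP luminescence after 72 h of 100 nM doxorubicin or none, duplicate wells averaged, scaled to non-targeting siRNA, then expressed as robust z-scores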. Scale: viability z-score with doxorubicin: higher = more viable cells under doxorubicin; viability z-score without drug: higher = more viable cells with knock-down alone. Hit rule: 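a pool counts as active when its viability z-score with doxorubicin is -2 or below and its z-score without drug lies between -2 and 2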.
The whole screen tested about 17,000 reagents; shown is an unselected part. 788 of them (4.7%) count as active. 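Calls rest on z-score classes alone; an extra cut-off of viability at most 70% of control was not applied to them.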 Not all columns of the deposit are shown.

target gene,combined z-score class,viability z-score with doxorubicin,viability z-score without drug,Call
1700012A03Rik,high cell count without drug only,-0.22,2.02,inactive
Slc32a1,no change with or without drug,-0.45,0.34,inactive
Mycn,no change with or without drug,0.45,-0.84,inactive
B3galt5,no change with or without drug,-0.45,-0.17,inactive
Syt11,no change with or without drug,-0.67,-1.18,inactive
Atxn3,no change with or without drug,-0.45,0.17,inactive
Clcc1,no change with or without drug,-0.45,-0.51,inactive
2210016L21Rik,low cell count with doxorubicin only,-4.27,-1.18,active
Basp1,high cell count with doxorubicin only,2.36,-0.17,inactive
Esd,no change with or without drug,-1.12,0.51,inactive
Tspoap1,no change with or without drug,-0.11,0.84,inactive
Lmf2,no change with or without drug,-0.34,-0.67,inactive
Spata18,high cell count without drug only,1.8,2.36,inactive
Nprl2,no change with or without drug,-0.22,-0.84,inactive
Samd9l,no change with or without drug,0.45,0,inactive
Tcp10b,no change with or without drug,-0.22,-0.84,inactive
Rpa1,low cell count with and without drug,-7.42,-4.38,inactive
Acsf3,no change with or without drug,-0.56,-0.51,inactive
Chchd2,low cell count with doxorubicin only,-2.25,-0.67,active
Sltm,no change with or without drug,-1.46,-0.51,inactive
